Measurements published in patent EP4421166A1, “IMPROVED SPLIT HALOTAGS” (Max-Planck-Gesellschaft zur Förderung der Wissenschaften …, priority 2023, dated 2024).
Part of at least one peptide drawing is inferred or uncertain, most often the ends. Where a SMILES comes first, the peptide text is derived from it.

System: cpHaloΔ
Experiment: Spontaneous complementation of cpHaloΔ without a sensor polypeptide
Type: biochemical
Settings: no sensor polypeptide

Row | SMILES | complementation of cpHaloΔ in absence of a direct link
1 | C[C@H](N)C(=O)N[C@@H](CCCNC(=N)N)C(=O)N[C@@H](CCC(=O)O)C(=O)N[C@H](C(=O)N[C@@H](Cc1ccccc1)C(=O)N[C@@H](CCC(N)=O)C(=O)N[C@@H](C)C(=O)N[C@@H](Cc1ccccc1)C(=O)N[C@@H](CCCNC(=N)N)C(=O)N[C@H](C(=O)O)[C@@H](C)O)[C@@H](C)O [Hpep1] | not able to perform this task
2 | C[C@H](N)C(=O)N[C@@H](CCCNC(=N)N)C(=O)N[C@@H](CCC(=O)O)C(=O)N[C@H](C(=O)N[C@@H](Cc1ccccc1)C(=O)N[C@@H](CCC(N)=O)C(=O)N[C@@H](C)C(=O)N[C@@H](Cc1ccccc1)C(=O)N[C@@H](CCCNC(=N)N)C(=O)O)[C@@H](C)O [SEQ ID NO 004] (H-ARETFQAFR-OH) | not able to perform this task
